Here are results for 3 molecules from article PMC12891039.

Sequences of proteins named here, by UniProt entry; tags and fusion partners are left off. A change or cut given only in a name is not applied to a line headed by its entry.
UniProt Q9Z2G6: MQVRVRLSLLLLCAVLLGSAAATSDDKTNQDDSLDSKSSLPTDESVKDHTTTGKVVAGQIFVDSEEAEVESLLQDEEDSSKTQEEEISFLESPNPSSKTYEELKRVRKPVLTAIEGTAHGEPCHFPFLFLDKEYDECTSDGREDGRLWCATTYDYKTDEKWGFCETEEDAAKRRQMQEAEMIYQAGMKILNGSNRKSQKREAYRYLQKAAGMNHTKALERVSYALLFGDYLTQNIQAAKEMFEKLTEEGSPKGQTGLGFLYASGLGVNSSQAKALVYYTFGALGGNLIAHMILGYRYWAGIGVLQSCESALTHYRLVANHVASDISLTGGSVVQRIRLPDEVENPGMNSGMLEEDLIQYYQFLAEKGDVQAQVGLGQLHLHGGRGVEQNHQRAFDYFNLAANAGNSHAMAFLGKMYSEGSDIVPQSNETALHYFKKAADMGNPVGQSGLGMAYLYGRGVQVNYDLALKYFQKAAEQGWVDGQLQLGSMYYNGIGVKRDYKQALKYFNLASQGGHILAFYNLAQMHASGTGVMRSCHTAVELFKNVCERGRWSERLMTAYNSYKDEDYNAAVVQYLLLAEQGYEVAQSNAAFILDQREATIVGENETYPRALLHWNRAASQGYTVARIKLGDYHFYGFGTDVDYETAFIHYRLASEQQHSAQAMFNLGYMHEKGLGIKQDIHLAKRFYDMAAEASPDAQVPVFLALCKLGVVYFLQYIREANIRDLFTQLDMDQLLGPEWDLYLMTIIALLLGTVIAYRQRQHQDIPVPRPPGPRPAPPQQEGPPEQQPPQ

One assay deals with POMC-C28F-HA. Nature of the assay: co-IP; IP of HA-tagged substrate (proAVP (G57S)-HA or POMC-C28F-HA) from transfected SEL1L^L709P KI HEK293T cells; immunoblot, quantification normalised to the substrate. For orientation: A western blot detects proteins with antibodies after separation by electrophoresis.
The target in a further assay is proAVP (G57S)-HA. The description is as above.
For assay [1], the target named is SEL1L S658P (mouse knock-in) (mouse (endogenous in MEFs and P0 liver)) (UniProt Q9Z2G6). Nature of the assay: co-IP; IP of endogenous SEL1L (1 ug anti-SEL1L, Protein A agarose, overnight 4 C) from MEF lysates (WT, Sel1L^S658P, Sel1L^L709P, Sel1L^P699T, Sel1L^ERCre KO); 150 mM NaCl, 25 mM Tris-HCl pH 7.5, 0.2% NP-40, 0.1% Triton X-100; immunoblot, prey band normalised to bait.

Results are given in words; binding and its absence hold for the method and conditions named. In cells and extracts the contact can be indirect. Binding calls can cover weak binding; strength is not graded here.

B1: SEL1L L709P (human, knock-in HEK293T) (protein, UniProt Q9UBV2-1 22-794)
chain: SSDEEGSQDESLDSKTTLTSDESVKDHTTAGRVVAGQIFLDSEESELESSIQEEEDSLKSQEGESVTEDISFLESPNPENKDYEEPKKVRKPALTAIEGTAHGEPCHFPFLFLDKEYDECTSDGREDGRLWCATTYDYKADEKWGFCETEEEAAKRRQMQEAEMMYQTGMKILNGSNKKSQKREAYRYLQKAASMNHTKALERVSYALLFGDYLPQNIQAAREMFEKLTEEGSPKGQTALGFLYASGLGVNSSQAKALVYYTFGALGGNLIAHMVLGYRYWAGIGVLQSCESALTHYRLVANHVASDISLTGGSVVQRIRLPDEVENPGMNSGMLEEDLIQYYQFLAEKGDVQAQVGLGQLHLHGGRGVEQNHQRAFDYFNLAANAGNSHAMAFLGKMYSEGSDIVPQSNETALHYFKKAADMGNPVGQSGLGMAYLYGRGVQVNYDLALKYFQKAAEQGWVDGQLQLGSMYYNGIGVKRDYKQALKYFNLASQGGHILAFYNLAQMHASGTGVMRSCHTAVELFKNVCERGRWSERLMTAYNSYKDGDYNAAVIQYLLLAEQGYEVAQSNAAFILDQREASIVGENETYPRALLHWNRAASQGYTVARIKLGDYHFYGFGTDVDYETAFIHYRLASEQQHSAQAMFNLGYMHEKGLGIKQDIHLAKRFYDMAAEASPDAQVPVFLAPCKLGVVYFLQYIRETNIRDMFTQLDMDQLLGPEWDLYLMTIIALLLGTVIAYRQRQHQDMPAPRPPGPRPAPPQQEGPPEQQPPQ
For the molecule B1, the binding entry in the assay with POMC-C28F-HA and in the assay with proAVP (G57S)-HA was “binds” each time.

B2: UBE2J1 (mouse) (enzyme, UniProt Q9JJZ4 1-318)
chain: METRYNLKSPAVKRLMKEAAELKDPTDHYHAQPLEDNLFEWHFTVRGPPDSDFDGGVYHGRIVLPPEYPMKPPSIILLTANGRFEVGKKICLSISGHHPETWQPSWSIRTALLAIIGFMPTKGEGAIGSLDYTPEERRALAKKSQDFCCEGCGSAMKDVLLPLKSGSGSSQADQEAKELARQISFKAEVNSSGKTIAESDLNQCFSLNDSQDDLPTTFQGATASTSYGAQNPSGAPLPQPTQPAPKNTSMSPRQRRAQQQSQRRPSTSPDVLQGQPPRAHHTEHGGSAMLIIILTLALAALIFRRIYLANEYIFDFEL
On to B2, for which the binding entry in assay [1] was “binds”.

B3: OS9 (human) (protein, UniProt Q13438 26-667)
chain: GGVGSLNLEELSEMRYGIEILPLPVMGGQSQSSDVVIVSSKYKQRYECRLPAGAIHFQREREEETPAYQGPGIPELLSPMRDAPCLLKTKDWWTYEFCYGRHIQQYHMEDSEIKGEVLYLGYYQSAFDWDDETAKASKQHRLKRYHSQTYGNGSKCDLNGRPREAEVRFLCDEGAGISGDYIDRVDEPLSCSYVLTIRTPRLCPHPLLRPPPSAAPQAILCHPSLQPEEYMAYVQRQADSKQYGDKIIEELQDLGPQVWSETKSGVAPQKMAGASPTKDDSKDSDFWKMLNEPEDQAPGGEEVPAEEQDPSPEAADSASGAPNDFQNNVQVKVIRSPADLIRFIEELKGGTKKGKPNIGQEQPVDDAAEVPQREPEKERGDPERQREMEEEEDEDEDEDEDEDERQLLGEFEKELEGILLPSDRDRLRSEVKAGMERELENIIQETEKELDPDGLKKESERDRAMLALTSTLNKLIKRLEEKQSPELVKKHKKKRVVPKKPPPSPQPTEEDPEHRVRVRVTKLRLGGPNQDLTVLEMKRENPQLKQIEGLVKELLEREGLTAAGKIEIKIVRPWAEGTEEGARWLTDEDTRNLKEIFFNILVPGAEEAQKERQRQKELESNYRRVWGSPGGEGTGDLDEFDF
As for B3, the binding result with POMC-C28F-HA and with proAVP (G57S)-HA was “binds” in each case.
